The values that follow come from the supplement of paper PMC10032668.

Amino acid sequences for entries named in this document (tags omitted).
AARS, P49588, UniProt P49588, whole entry: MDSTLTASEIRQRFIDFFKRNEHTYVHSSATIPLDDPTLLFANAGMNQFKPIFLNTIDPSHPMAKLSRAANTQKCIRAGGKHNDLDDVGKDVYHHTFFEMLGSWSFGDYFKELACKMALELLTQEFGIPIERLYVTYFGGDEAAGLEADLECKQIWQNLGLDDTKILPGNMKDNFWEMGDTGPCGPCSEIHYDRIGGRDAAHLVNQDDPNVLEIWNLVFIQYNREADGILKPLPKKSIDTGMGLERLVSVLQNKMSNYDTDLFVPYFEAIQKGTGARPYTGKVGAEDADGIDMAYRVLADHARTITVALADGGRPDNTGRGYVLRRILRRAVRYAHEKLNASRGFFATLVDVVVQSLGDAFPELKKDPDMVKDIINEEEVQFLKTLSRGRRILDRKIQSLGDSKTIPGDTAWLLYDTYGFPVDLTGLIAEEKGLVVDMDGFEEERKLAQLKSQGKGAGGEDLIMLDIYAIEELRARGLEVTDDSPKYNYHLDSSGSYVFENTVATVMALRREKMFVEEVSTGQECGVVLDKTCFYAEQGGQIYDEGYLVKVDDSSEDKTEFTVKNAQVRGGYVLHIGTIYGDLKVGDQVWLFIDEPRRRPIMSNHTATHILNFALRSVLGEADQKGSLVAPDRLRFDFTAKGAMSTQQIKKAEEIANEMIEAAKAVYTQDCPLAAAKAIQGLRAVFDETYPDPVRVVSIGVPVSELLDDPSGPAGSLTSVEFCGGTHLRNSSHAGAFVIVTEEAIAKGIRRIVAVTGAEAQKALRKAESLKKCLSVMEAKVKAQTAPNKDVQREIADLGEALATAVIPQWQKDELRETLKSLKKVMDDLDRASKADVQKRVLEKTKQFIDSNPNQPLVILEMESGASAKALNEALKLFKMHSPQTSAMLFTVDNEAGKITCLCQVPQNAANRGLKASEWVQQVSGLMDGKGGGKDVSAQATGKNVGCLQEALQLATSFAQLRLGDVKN
CCT5, P48643, UniProt P48643, whole entry: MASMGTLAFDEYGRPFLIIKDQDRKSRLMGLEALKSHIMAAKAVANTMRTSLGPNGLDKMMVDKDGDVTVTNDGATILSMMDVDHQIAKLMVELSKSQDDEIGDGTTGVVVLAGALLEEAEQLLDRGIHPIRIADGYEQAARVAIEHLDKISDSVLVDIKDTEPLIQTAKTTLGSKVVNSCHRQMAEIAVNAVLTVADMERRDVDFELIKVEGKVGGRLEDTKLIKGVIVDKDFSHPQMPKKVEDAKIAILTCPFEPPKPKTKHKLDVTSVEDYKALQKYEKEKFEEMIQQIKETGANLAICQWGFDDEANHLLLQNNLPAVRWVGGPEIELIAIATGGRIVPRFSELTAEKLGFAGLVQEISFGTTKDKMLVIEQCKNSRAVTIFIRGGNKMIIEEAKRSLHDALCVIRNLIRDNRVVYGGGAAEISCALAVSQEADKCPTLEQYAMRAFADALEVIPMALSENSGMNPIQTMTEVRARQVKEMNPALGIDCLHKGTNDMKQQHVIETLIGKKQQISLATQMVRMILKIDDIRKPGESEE
CRIPT, Q9P021, UniProt Q9P021, whole entry: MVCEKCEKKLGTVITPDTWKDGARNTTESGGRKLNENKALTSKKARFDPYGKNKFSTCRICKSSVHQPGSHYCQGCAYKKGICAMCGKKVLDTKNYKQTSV
FEN1, P39748, UniProt P39748, whole entry: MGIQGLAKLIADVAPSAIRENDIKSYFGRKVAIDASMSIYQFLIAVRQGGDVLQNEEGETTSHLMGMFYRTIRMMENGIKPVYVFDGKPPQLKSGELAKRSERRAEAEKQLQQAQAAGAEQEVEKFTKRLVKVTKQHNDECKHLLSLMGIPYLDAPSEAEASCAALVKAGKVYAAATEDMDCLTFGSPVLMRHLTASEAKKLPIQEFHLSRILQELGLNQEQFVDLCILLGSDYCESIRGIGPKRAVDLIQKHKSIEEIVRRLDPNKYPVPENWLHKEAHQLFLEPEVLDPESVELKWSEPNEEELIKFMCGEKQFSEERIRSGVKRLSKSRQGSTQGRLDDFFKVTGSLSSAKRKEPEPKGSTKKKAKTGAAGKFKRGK
NDUFS1, P28331, UniProt P28331, whole entry: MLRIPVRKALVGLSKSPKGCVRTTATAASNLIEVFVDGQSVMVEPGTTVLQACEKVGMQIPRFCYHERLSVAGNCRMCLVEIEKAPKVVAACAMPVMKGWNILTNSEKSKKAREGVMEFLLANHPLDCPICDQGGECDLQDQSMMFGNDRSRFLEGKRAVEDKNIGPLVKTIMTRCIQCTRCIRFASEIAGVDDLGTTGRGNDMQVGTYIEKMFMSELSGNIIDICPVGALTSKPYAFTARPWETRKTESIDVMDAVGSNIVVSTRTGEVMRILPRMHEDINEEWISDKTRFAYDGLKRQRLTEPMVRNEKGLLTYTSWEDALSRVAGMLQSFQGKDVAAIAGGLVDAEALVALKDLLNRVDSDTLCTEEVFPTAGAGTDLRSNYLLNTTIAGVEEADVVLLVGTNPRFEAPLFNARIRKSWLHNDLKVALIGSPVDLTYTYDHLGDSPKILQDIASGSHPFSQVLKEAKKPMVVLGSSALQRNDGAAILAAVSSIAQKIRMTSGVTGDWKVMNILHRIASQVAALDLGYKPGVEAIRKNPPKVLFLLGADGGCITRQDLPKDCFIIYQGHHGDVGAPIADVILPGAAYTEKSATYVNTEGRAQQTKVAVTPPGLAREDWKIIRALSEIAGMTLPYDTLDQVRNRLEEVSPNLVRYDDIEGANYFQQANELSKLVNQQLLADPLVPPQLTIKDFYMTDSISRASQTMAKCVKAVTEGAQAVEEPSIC
NUDT21, O43809, UniProt O43809, whole entry: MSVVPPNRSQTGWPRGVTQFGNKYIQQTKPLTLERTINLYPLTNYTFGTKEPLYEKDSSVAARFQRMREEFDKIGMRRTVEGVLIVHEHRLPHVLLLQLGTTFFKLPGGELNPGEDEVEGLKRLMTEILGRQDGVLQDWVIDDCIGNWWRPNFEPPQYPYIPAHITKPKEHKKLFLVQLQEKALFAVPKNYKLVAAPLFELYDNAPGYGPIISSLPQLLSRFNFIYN
AARS2, Q5JTZ9, UniProt Q5JTZ9, whole entry: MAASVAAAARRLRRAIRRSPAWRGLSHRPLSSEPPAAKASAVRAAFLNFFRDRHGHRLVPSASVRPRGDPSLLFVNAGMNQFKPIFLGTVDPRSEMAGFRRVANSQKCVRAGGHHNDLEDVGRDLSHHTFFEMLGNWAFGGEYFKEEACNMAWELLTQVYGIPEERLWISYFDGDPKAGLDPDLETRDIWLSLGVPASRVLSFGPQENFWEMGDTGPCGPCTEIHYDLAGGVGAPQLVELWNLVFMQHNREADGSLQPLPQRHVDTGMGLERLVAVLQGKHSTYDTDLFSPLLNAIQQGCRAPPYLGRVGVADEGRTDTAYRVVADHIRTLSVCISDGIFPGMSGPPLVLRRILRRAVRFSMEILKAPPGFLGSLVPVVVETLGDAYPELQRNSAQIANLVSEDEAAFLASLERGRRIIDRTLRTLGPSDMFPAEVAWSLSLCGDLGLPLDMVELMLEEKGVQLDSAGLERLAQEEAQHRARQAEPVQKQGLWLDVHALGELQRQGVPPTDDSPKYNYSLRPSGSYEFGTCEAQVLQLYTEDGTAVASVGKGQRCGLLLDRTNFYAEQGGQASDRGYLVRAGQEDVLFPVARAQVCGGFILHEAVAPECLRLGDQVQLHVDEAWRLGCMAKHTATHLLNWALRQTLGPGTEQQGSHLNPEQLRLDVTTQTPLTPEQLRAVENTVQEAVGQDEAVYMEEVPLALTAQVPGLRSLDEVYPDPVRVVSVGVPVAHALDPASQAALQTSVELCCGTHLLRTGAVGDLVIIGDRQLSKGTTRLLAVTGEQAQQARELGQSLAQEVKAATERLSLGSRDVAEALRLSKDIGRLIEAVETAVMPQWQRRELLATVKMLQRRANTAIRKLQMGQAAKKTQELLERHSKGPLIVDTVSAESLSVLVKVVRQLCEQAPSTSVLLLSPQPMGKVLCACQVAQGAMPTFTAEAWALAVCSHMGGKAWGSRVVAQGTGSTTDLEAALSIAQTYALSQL
POLE, Q07864, UniProt Q07864, whole entry: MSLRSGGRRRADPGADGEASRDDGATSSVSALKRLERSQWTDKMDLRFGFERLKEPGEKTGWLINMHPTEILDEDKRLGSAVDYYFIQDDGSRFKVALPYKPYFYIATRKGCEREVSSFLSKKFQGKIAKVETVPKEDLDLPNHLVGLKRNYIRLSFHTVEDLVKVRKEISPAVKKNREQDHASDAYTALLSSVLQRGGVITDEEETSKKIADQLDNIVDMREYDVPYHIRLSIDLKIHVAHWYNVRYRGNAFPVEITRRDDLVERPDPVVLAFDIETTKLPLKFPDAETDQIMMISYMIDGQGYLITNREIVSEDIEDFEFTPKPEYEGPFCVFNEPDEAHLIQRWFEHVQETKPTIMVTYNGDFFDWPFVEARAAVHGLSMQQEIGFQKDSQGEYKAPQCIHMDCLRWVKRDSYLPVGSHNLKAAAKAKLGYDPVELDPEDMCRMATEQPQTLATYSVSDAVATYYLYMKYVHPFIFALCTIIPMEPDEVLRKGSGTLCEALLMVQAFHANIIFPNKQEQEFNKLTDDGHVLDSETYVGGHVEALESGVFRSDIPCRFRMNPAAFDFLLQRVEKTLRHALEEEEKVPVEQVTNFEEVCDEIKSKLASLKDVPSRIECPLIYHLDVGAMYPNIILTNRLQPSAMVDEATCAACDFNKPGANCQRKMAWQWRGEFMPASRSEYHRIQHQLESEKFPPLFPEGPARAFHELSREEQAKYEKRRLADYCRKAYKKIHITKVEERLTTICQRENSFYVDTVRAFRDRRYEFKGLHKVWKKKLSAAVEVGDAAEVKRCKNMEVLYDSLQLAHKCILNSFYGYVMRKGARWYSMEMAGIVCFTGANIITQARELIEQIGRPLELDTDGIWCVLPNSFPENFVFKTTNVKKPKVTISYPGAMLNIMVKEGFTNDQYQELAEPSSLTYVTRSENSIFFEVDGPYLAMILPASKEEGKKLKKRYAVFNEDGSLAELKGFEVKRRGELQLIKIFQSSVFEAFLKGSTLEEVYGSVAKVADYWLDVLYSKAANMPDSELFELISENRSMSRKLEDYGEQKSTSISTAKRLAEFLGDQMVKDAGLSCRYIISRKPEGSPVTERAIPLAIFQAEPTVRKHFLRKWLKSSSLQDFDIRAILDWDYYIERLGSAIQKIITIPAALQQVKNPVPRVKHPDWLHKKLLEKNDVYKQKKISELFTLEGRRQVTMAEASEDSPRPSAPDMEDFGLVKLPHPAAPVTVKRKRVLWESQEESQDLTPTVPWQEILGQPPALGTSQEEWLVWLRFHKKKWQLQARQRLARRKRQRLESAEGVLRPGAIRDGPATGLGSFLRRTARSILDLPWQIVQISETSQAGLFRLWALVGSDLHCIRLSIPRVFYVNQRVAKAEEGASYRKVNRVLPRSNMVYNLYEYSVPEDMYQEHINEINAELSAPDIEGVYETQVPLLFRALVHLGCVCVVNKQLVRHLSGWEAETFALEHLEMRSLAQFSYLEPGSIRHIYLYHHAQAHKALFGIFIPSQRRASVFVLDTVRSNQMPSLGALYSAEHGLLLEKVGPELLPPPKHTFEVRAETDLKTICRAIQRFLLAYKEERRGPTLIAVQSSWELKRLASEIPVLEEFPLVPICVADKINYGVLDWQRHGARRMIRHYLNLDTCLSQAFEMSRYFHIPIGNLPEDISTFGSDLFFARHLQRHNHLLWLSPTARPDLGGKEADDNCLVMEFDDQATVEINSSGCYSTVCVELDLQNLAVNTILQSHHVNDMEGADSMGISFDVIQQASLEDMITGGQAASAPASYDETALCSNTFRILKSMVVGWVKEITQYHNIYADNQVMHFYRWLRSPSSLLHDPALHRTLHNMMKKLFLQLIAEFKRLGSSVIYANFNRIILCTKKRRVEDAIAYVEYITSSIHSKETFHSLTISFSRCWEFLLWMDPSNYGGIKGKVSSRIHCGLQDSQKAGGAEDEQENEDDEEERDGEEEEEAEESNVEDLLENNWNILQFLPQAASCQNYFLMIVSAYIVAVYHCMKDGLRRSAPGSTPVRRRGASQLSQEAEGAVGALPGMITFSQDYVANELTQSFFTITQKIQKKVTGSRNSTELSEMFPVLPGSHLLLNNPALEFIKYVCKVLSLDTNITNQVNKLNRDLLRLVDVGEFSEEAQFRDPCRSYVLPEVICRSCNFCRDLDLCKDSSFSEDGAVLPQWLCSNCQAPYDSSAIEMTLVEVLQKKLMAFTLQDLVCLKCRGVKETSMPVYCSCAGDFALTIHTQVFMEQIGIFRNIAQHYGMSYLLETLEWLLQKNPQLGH
DNAJB1, P25685, UniProt P25685, whole entry: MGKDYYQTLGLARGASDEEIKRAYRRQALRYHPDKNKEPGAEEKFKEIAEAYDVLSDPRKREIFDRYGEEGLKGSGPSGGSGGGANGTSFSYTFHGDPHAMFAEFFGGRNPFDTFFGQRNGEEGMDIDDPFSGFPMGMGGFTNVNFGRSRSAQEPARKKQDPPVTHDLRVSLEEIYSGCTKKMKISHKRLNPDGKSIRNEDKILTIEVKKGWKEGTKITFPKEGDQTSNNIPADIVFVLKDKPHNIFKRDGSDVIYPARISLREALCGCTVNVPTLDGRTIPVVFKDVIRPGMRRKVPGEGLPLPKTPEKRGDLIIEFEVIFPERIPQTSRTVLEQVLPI

The other results are listed elsewhere or left out. Only hits are listed; about a third recur on repeated control peptides.

What all share (experiment): PRISMA enrichment of interactor (LFQ) in peptide spot vs all other peptide spots (log2 fold change); higher = stronger / more specific binding of the interactor to the peptide
One assay has as its target AARS, P49588. The method, then: (§1)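 PRISMA: 15-aa overlapping tiles (offset 8 aa) of 60 microproteins, plus SOS1/GLUT1 control peptides, were spot-synthesized on cellulose membranes in triplicate. Membranes were incubated with benzonase-treated HEK293T lysate, and bound proteins were identified by LC-MS/MS with LFQ. Enrichment is the log2 fold change of each protein in one spot versus all other spots. Only interactors passing the significance cutoff are listed.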

The next assay concerns the target CCT5, P48643. The method, then:
as §1

A further assay concerns the target CRIPT, Q9P021. The method, then: as §1
The target in a further assay is FAM50A, Q14320. The method, then:
as §1

The target in a further assay is FEN1, P39748. The method, then:
as §1

For a further assay, the target named is KARS, Q15046. The method, then: as §1
A further assay deals with LMNB1, P20700. The method, then:
as §1

For another assay, the target named is LUC7L3, O95232. The method, then:
as §1

For a further assay, the target named is MRPL43, Q8N983. The method, then: as §1
The next assay has as its target MYBBP1A, Q9BQG0. The method, then:
as §1

A further assay concerns the target NDUFS1, P28331. The method, then: as §1
Another assay has as its target PDCD11, Q14690. The method, then:
as §1

In a further assay the target is RO60, P10155. The method, then:
as §1

The next assay has as its target SCP2, P22307. The method, then: as §1
Another assay addresses TARS, P26639. The method, then: as §1
Another assay has as its target YWHAQ, P27348. The method, then: as §1
The target in a further assay is YWHAZ, P63104. The method, then:
as §1

For a further assay, the target named is AAR2, Q9Y312. The method, then: as §1
The target of the next assay is AIMP1, Q12904. The method, then:
as §1

A further assay concerns the target ALDH6A1, Q02252. The method, then: as §1
A further assay concerns the target DDX31, Q9H8H2. The method, then: as §1
The next assay deals with GPC4, O75487. The method, then:
as §1

Another assay concerns the target GTF3C3, Q9Y5Q9. The method, then: as §1
The target of a further assay is IDH3A, P50213. The method, then:
as §1

The target of the next assay is LSG1, Q9H089. The method, then: as §1
For a further assay, the target named is MRPL3, P09001. The method, then: as §1
In another assay the target is MRPS14, O60783. The method, then:
as §1

The next assay concerns the target MRPS22, P82650. The method, then: as §1
The next assay deals with MT-ATP6, P00846. The method, then: as §1
The next assay addresses MT-ATP8, P03928. The method, then: as §1
A further assay concerns the target NUDT21, O43809. The method, then: as §1
For a further assay, the target named is PELP1, Q8IZL8. The method, then: as §1
A further assay has as its target SCD, O00767. The method, then:
as §1

Another assay addresses TMEM109, Q9BVC6. The method, then:
as §1

The target in another assay is TPD52L2, O43399. The method, then:
as §1

Another assay deals with AARS2, Q5JTZ9. The method, then:
as §1

The target of another assay is BAZ1B, Q9UIG0. The method, then: as §1
The target in a further assay is BMS1, Q14692. The method, then: as §1
In another assay the target is CHMP5, Q9NZZ3. The method, then: as §1
Another assay concerns the target CPSF6, Q16630. The method, then:
as §1

The target of a further assay is CPSF7, Q8N684. The method, then:
as §1

The target of another assay is DVL2, O14641. The method, then: as §1
In another assay the target is ECHS1, P30084. The method, then:
as §1

A further assay has as its target GAPVD1, Q14C86. The method, then: as §1
Another assay addresses HMGB2, P26583. The method, then:
as §1

A further assay concerns the target HNRNPR, O43390. The method, then: as §1
The next assay deals with HS2ST1, Q7LGA3. The method, then: as §1
Another assay has as its target KPNA6, O60684. The method, then:
as §1

In a further assay the target is MCCC2, Q9HCC0. The method, then:
as §1

The next assay deals with MRPL45, Q9BRJ2. The method, then: as §1
Another assay addresses MTPAP, Q9NVV4. The method, then: as §1
For another assay, the target named is NACA. The method, then: as §1
The next assay deals with NGDN, Q8NEJ9. The method, then:
as §1

Another assay has as its target OLA1, Q9NTK5. The method, then:
as §1

The next assay deals with OXSR1, O95747. The method, then:
as §1

The next assay addresses POLE, Q07864. The method, then: as §1
The target of the next assay is PRRC2A, P48634. The method, then: as §1
The next assay deals with RAB35, Q15286. The method, then: as §1
The next assay concerns the target RBBP7, Q16576. The method, then:
as §1

The target in another assay is RBM22, Q9NW64. The method, then: as §1
For another assay, the target named is RPL26L1, Q9UNX3. The method, then: as §1
The next assay deals with SMC4, Q9NTJ3. The method, then:
as §1

Another assay addresses STAU2, Q9NUL3. The method, then:
as §1

The next assay concerns the target TLN1, Q9Y490. The method, then: as §1
The next assay concerns the target ACTR2, P61160. The method, then:
as §1

The target of a further assay is APRT, P07741. The method, then:
as §1

The next assay deals with DCXR, Q7Z4W1. The method, then: as §1
In another assay the target is DECR1, Q16698. The method, then: as §1
The target of another assay is DNAJB1, P25685. The method, then:
as §1

The next assay concerns the target EP300, Q09472. The method, then:
as §1

A further assay has as its target LARP7, Q4G0J3. The method, then: as §1
For another assay, the target named is LPCAT3, Q6P1A2. The method, then:
as §1

The target of another assay is MPG, P29372. The method, then: as §1
The target of the next assay is MRPS9, P82933. The method, then:
as §1

Substrate in assay [1]: NSF, P46459
The method, then:
as §1

The target in another assay is NUP214, P35658. The method, then: as §1
The target in another assay is PFDN6, O15212. The method, then: as §1
A further assay addresses POLR2H, P52434. The method, then:
as §1

The target of another assay is PRPF3, O43395. The method, then: as §1
The next assay has as its target SFXN2, Q96NB2. The method, then:
as §1

Another assay addresses SHROOM3, Q8TF72. The method, then: as §1
A further assay addresses SPART, Q8N0X7. The method, then:
as §1

The target of another assay is STK24, Q9Y6E0. The method, then: as §1
The next assay concerns the target TWNK, Q96RR1. The method, then: as §1
The next assay deals with UBAC2, Q8NBM4. The method, then:
as §1

For another assay, the target named is UBE2M, P61081. The method, then:
as §1

The target in the next assay is UFD1, Q92890. The method, then: as §1
The next assay deals with ZNF483, Q8TF39. The method, then:
as §1

A further assay addresses ZFR, Q96KR1. The method, then: as §1
The target of another assay is ZMPSTE24, O75844. The method, then: as §1

Regarding DWKGLMKPAVMLMRL [TRDN-AS1], the “PRISMA enrichment of interactor (log2)” value in the assay with AARS, P49588 worked out at 6.62; in the assay with CCT5, P48643 it was 4.56; with CRIPT, Q9P021, 4.86; with FAM50A, Q14320, 3.35; with FEN1, P39748, 5.04; with KARS, Q15046, 4.39. Also, the “PRISMA enrichment of interactor (log2)” value is 6.42 in the assay with LMNB1, P20700; 5.97 with LUC7L3, O95232; 3.91 in the assay with MRPL43, Q8N983; 9.15 in the assay with MYBBP1A, Q9BQG0; 3.86 with NDUFS1, P28331; 4.66 with PDCD11, Q14690. The “PRISMA enrichment of interactor (log2)” value with RO60, P10155 was determined as 3.2; with SCP2, P22307, 4.51; with TARS, P26639 it was 3.89; in the assay with YWHAQ, P27348, 8.18; with YWHAZ, P63104, 4.97.
Regarding PGGGPLLASFATPLL, the “PRISMA enrichment of interactor (log2)” value with AAR2, Q9Y312 amounted to 5.67; with AIMP1, Q12904 it was 4.67; in the assay with ALDH6A1, Q02252 it was 6.3; with DDX31, Q9H8H2 it was 4.39; with GPC4, O75487 it was 4.21; with GTF3C3, Q9Y5Q9 it was 6.55. Also, the “PRISMA enrichment of interactor (log2)” value with IDH3A, P50213 was found to be 4.58; with LSG1, Q9H089 it was 7.67; with MRPL3, P09001, 5.38; in the assay with MRPS14, O60783, 4.29; in the assay with MRPS22, P82650, 4.83; in the assay with MT-ATP6, P00846, 5.93. For the same molecule, the “PRISMA enrichment of interactor (log2)” value with MT-ATP8, P03928 turned out to be 4.95; with NUDT21, O43809, 6.71; with PELP1, Q8IZL8, 6.26; in the assay with SCD, O00767, 4.43; with TMEM109, Q9BVC6, 4.9; with TPD52L2, O43399 it was 5.16.
In the case of AEYYLESLNKDKKHH [NDUFB3], the “PRISMA enrichment of interactor (log2)” value was 4.37 in the assay with AARS2, Q5JTZ9; 4.84 with BAZ1B, Q9UIG0; 4.79 in the assay with BMS1, Q14692; 4.33 with CHMP5, Q9NZZ3; 6.26 with CPSF6, Q16630; 5.35 in the assay with CPSF7, Q8N684. Besides, the “PRISMA enrichment of interactor (log2)” value turned out to be 7.27 with DVL2, O14641; 9.66 with ECHS1, P30084; 5.32 with GAPVD1, Q14C86; 4.08 with HMGB2, P26583; 6.97 in the assay with HNRNPR, O43390; 5.92 with HS2ST1, Q7LGA3. Moreover, the “PRISMA enrichment of interactor (log2)” value with KPNA6, O60684 came to 5.08; with MCCC2, Q9HCC0 it was 7.84; with MRPL45, Q9BRJ2 it was 4.63; with MTPAP, Q9NVV4 it was 4.31; with NACA, 5.41; with NGDN, Q8NEJ9 it was 5.1. Also, the “PRISMA enrichment of interactor (log2)” value is 4.73 with OLA1, Q9NTK5; 6.26 with OXSR1, O95747; 6.85 with POLE, Q07864; 4.47 with PRRC2A, P48634; 3.84 with RAB35, Q15286; 6.61 in the assay with RBBP7, Q16576. The “PRISMA enrichment of interactor (log2)” value in the assay with RBM22, Q9NW64 amounted to 3.97; with RPL26L1, Q9UNX3, 4.19; with SMC4, Q9NTJ3 it was 6.46; in the assay with STAU2, Q9NUL3, 4.11; with TLN1, Q9Y490 it was 6.42.
In the case of SLKVCGSSPILLSLP [RP11-12K22.1], the “PRISMA enrichment of interactor (log2)” value is 5.68 in the assay with AAR2, Q9Y312; 4.92 with ACTR2, P61160; 6.17 with APRT, P07741; 5.22 in the assay with DCXR, Q7Z4W1; 5.38 with DECR1, Q16698; 4.94 with DNAJB1, P25685. Besides, the “PRISMA enrichment of interactor (log2)” value in the assay with EP300, Q09472 was 3.9; with LARP7, Q4G0J3, 5.27; with LPCAT3, Q6P1A2 it was 6.46; with MPG, P29372 it was 5.07; with MRPS9, P82933, 4.54; in [1], 4.58. Also, the “PRISMA enrichment of interactor (log2)” value with NUP214, P35658 was determined as 4.9; with PFDN6, O15212, 4.23; in the assay with POLR2H, P52434 it was 4.7; in the assay with PRPF3, O43395, 4.64; with SFXN2, Q96NB2 it was 4.36; with SHROOM3, Q8TF72, 9.92. The “PRISMA enrichment of interactor (log2)” value was determined as 4.53 with SPART, Q8N0X7; 4.64 with STK24, Q9Y6E0; 4.27 in the assay with TWNK, Q96RR1; 5.22 with UBAC2, Q8NBM4; 4.52 with UBE2M, P61081; 6.35 with UFD1, Q92890. Besides, the “PRISMA enrichment of interactor (log2)” value with ZNF483, Q8TF39 was 4.78.
As for RSTSMPSMAGTGHPL, the “PRISMA enrichment of interactor (log2)” value with ZFR, Q96KR1 is 4.56; with ZMPSTE24, O75844, 4.45; with ZNF483, Q8TF39, 5.28.
